Results published in article PMC3110202.
These are yes or no findings as the source states them, for the method shown. In cells and extracts the contact can be indirect. Some binding calls cover weakened binding; strength is not graded here.

By UniProt entry, the sequences of proteins in these tests, tags left out.
UniProt Q15788: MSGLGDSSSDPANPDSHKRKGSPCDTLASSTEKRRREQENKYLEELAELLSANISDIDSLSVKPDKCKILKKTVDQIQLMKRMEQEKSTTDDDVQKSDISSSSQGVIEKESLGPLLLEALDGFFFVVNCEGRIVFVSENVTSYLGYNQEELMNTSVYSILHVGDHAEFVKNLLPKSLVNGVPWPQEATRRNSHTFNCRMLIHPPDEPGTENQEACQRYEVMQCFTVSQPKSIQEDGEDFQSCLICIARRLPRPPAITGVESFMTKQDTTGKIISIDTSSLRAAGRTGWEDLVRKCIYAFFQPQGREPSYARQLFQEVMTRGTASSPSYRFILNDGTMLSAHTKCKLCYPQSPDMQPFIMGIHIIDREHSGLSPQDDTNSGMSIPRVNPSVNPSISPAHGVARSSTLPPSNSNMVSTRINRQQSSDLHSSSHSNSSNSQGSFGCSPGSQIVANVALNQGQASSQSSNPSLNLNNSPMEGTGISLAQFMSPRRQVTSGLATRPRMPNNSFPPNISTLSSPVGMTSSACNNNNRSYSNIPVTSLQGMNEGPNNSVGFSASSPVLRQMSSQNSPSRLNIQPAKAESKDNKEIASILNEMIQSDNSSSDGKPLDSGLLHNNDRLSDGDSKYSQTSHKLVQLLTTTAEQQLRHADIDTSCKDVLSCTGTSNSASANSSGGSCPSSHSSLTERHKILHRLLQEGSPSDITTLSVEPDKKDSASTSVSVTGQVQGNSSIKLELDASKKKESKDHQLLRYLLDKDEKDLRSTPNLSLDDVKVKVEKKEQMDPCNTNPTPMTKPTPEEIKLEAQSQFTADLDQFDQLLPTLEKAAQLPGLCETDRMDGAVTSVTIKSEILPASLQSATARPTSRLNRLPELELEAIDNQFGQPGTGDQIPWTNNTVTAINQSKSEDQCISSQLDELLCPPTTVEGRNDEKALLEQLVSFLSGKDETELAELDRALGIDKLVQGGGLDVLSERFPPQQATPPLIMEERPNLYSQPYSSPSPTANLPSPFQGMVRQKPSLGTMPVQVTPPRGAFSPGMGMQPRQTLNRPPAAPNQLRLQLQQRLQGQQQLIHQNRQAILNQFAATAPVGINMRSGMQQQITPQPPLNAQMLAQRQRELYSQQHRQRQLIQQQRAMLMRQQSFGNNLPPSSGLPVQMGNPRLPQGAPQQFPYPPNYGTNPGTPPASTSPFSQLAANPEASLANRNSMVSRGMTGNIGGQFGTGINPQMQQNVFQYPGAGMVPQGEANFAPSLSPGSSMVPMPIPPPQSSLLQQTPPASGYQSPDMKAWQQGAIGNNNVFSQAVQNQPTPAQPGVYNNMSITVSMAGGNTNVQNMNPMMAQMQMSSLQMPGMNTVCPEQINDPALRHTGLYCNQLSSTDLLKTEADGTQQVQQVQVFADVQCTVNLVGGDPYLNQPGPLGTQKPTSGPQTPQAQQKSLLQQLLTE

Molecular target: T1, thyroid hormone receptor beta (TRβ) (human (endogenous in MCF-7)) (UniProt P10828)
T1 sequence: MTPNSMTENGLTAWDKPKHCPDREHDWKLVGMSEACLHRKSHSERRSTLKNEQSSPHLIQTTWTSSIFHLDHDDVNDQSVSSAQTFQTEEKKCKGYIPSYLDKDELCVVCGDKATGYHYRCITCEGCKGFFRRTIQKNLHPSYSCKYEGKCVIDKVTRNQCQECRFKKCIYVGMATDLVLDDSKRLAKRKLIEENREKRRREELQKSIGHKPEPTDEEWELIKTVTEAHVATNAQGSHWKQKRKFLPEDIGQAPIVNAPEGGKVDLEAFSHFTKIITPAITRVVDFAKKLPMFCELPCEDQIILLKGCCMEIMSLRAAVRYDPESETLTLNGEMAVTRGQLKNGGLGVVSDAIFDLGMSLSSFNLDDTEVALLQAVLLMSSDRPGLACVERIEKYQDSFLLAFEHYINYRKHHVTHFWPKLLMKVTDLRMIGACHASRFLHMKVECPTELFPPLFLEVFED
Assay: co-IP; 500 µg of MCF-7 whole cell extract precipitated with TRβ, SRC-1 or normal IgG antibodies, protein A/G plus sepharose beads, Western blot; endogenous proteins; cells with or without overnight 1 µM T3

binding: binds
Substance: Steroid receptor coactivator (SRC-1) (from UniProt Q15788 1-1441)
